According to the supplement of paper PMC12823440, “Inhibitors supercharge kinase turnover through native proteolytic circuits” (Nature, 2025):
Where a name gives a salt, the structure may show the parent alone. This is one part of the list. The calls rarely recur for the same compound in another form.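 In K562 cells expressing nanoluciferase-fused kinases, luminescence was recorded at 4 h intervals between 2 and 18 h, normalized as percent of control with DMSO at 100% and a positive control at 0%. A significant (2 sigma) signal drop marks a time point as decreased. The authors' rule for a hit is not shown and takes in more than the number of time points.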

Chains of the proteins cited; added tags and fusions are not shown.
UniProt P09619, whole entry: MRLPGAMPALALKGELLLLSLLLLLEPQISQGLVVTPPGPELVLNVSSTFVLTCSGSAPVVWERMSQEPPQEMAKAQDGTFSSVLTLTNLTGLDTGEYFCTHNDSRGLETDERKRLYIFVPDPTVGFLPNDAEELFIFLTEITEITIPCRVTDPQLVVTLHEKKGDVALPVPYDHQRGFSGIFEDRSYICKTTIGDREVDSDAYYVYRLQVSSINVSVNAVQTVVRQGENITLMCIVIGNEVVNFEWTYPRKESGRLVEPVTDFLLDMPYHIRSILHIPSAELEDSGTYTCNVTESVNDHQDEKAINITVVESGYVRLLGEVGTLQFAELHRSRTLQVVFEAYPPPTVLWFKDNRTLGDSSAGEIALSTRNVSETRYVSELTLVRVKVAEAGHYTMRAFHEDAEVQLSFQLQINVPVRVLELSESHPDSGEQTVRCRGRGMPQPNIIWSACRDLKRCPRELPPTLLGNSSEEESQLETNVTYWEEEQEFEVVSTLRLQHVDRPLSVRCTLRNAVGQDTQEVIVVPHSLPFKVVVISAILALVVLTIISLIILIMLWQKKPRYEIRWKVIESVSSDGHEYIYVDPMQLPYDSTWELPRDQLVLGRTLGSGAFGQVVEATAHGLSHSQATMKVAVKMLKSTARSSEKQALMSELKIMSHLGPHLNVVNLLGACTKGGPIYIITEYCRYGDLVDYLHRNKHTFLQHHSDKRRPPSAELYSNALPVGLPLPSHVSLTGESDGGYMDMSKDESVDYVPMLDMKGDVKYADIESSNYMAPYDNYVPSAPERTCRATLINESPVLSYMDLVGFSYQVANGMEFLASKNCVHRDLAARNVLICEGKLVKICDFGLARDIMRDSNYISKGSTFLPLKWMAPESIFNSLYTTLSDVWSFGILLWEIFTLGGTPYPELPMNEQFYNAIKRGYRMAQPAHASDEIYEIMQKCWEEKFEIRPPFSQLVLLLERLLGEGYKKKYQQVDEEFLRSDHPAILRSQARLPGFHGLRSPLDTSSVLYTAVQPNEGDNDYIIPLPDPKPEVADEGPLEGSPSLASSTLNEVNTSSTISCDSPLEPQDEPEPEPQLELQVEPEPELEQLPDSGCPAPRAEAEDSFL

molecular target: PDGFRB (UniProt P09619); assay: number of time points (of 5) at which kinase-Nluc abundance scored as decreased, DMSO-normalised (count); higher = more persistent destabilization; details: K562; 2-18 h

Row | SMILES | number of time points
1 | C[C@H]1CC[C@]2(NC1)O[C@H]1C[C@H]3[C@@H]4CC[C@H]5C[C@@H](O[C@@H]6O[C@H](CO)[C@H](O[C@@H]7O[C@H](CO)[C@@H](O)[C@H](O[C@@H]8OC[C@@H](O)[C@H](O)[C@H]8O)[C@H]7O[C@@H]7O[C@H](CO)[C@@H](O)[C@H](O)[C@H]7O)[C@H](O)[C@H]6O)CC[C@]5(C)[C@H]4CC[C@]3(C)[C@H]1[C@@H]2C [Tomatine] (2.5 µM) | 2
2 | CCCCNc1nc(N)c2[nH]c(=O)n(Cc3ccc(C)nc3)c2n1 (10 µM) | 0
3 | C[C@H](CCC(=O)O)C[C@H](C)C[C@H](C)C(=O)/C=C(\O)[C@H](C)C[C@H](C)C/C=C/[C@@H](C)[C@@H](O)[C@@H](C)[C@@H](O)C[C@@H]1CC[C@@](C)([C@H]2CC[C@@](C)([C@@H](C)O)O2)O1 [Ionomycin (calcium)] (2.5 µM) | 0
4 | CCOC(=O)c1c(/C(C#N)=C\N)c2ccc(Cl)c(Cl)c2n1C (10 µM) | 0
5 | CC(=O)OC(C)(C)/C=C/C(=O)[C@](C)(O)[C@H]1[C@H](O)C[C@@]2(C)[C@@H]3CC=C4[C@@H](C=C(O)C(=O)C4(C)C)[C@]3(C)C(=O)C[C@]12C [Cucurbitacin E] (2.5 µM) | 0
6 | O=C1C=CC[C@@H]2[C@H]3CCCN4CCC[C@@H](CN12)[C@@H]34 [Sophocarpine (monohydrate)] (2.5 µM) | 0
7 | C=CC(=O)Nc1ccc2[nH]c(=O)n(C3CCN(Cc4ccc(-c5nc6cc[nH]c(=O)c6cc5-c5ccccc5)cc4)CC3)c2c1 [Borussertib] (10 µM) | 0
8 | O=C1C=CC[C@@H]2[C@H]3CCCN4CCC[C@@H](CN12)[C@@H]34 [Sophocarpine] (10 µM) | 0
9 | C=CC(=O)N[C@H]1C=C(C)c2c(-c3cnc4ccccc4c3)c3c(N)ncnc3n2C1 (10 µM) | 0
10 | Cn1cc(C2=C(c3cn(C4CCN(Cc5ccccn5)CC4)c4ccccc34)C(=O)NC2=O)c2ccccc21 [Enzastaurin] (10 µM) | 0
11 | CCN1CCN(C(=O)Cc2ccc(Nc3ncc(F)c(Nc4ccc(C(=O)Nc5ccccc5Cl)cc4)n3)cc2)CC1 (2.5 µM) | 0
12 | C[C@H]1CC[C@]2(NC1)O[C@H]1C[C@H]3[C@@H]4CC[C@H]5C[C@@H](O)CC[C@]5(C)[C@H]4CC[C@]3(C)[C@H]1[C@@H]2C [Tomatidine (hydrochloride)] (10 µM) | 0
13 | O=[N+]([O-])/C=C/c1ccc2c(c1)OCO2 (2.5 µM) | 0
14 | NCCc1cn(S(=O)(=O)c2c(Cl)nc3sccn23)c2ccccc12 (10 µM) | 0
15 | COc1ccc(N(C(=O)Oc2c(C)cccc2C)c2ccnc(Nc3ccc(N4CCN(C)CC4)cc3)n2)c(OC)c1 (2.5 µM) | 0
16 | Cc1ccccc1-n1c(Cn2cnc3c(N)ncnc32)nc2cccc(C)c2c1=O (10 µM) | 0
17 | Cc1[nH]ncc1-c1cc2nc([C@H]3CC4CCN3CC4)[nH]c(=O)c2s1 [(R)-Simurosertib] (10 µM) | 0
18 | CC1C(=O)OC2C(O)C34C5OC(=O)C3(OC3OC(=O)C(O)C34C(C(C)(C)C)C5O)C12O (stereo not given) [Ginkgolide C] (10 µM) | 0
19 | O=C(/C=C/c1ccccc1)OC[C@H]1O[C@@H](O[C@@H]2OC=C[C@H]3[C@H](O)[C@@H]4O[C@]4(CO)[C@@H]23)[C@H](O)[C@@H](O)[C@@H]1O [Picroside I] (10 µM) | 0
20 | CC1=C[C@]23C(=O)[C@@H](C=C(CO)[C@@H](O)[C@]2(O)[C@H]1O)[C@H]1[C@@H](C[C@H]3C)C1(C)C [Ingenol] (10 µM) | 0
21 | O=Cc1cn(Cc2ccc(Cl)cc2)c2ccccc12 [Oncrasin-1] (10 µM) | 0
22 | C[C@@H]1CC[C@H]2[C@@H](C)C(=O)O[C@@H]3O[C@@]4(C)CC[C@@H]1[C@]32OO4 [Artemisinin] (10 µM) | 0
23 | C[C@H](Nc1ncnc2[nH]cnc12)c1nc2ccc(F)cc2c(=O)n1-c1ccccc1 [Acalisib] (10 µM) | 0
24 | O=C1c2ccccc2C(=O)c2c1cccc2-c1cnn(C2CCNCC2)c1 [PDK4-IN-1 (hydrochloride)] (10 µM) | 0
25 | Cc1ccccc1-n1c(Cn2ncc3c(N)ncnc32)nc2cccc(C)c2c1=O (10 µM) | 0

Another view of part of the listing above:
Row	SMILES	number of time points
2	CCCCNc1nc(N)c2[nH]c(=O)n(Cc3ccc(C)nc3)c2n1 (10 µM)	0
3	C[C@H](CCC(=O)O)C[C@H](C)C[C@H](C)C(=O)/C=C(\O)[C@H](C)C[C@H](C)C/C=C/[C@@H](C)[C@@H](O)[C@@H](C)[C@@H](O)C[C@@H]1CC[C@@](C)([C@H]2CC[C@@](C)([C@@H](C)O)O2)O1 [Ionomycin (calcium)] (2.5 µM)	0
